Results are given in words; binding and its absence hold for the method and conditions named. In cells and extracts the contact can be indirect.
Target: Enhancer of Zeste [E(z)] (D. melanogaster (endogenous in larval CNS)) (UniProt P42124)
Experiment: co-IP; third instar larval CNS protein extracts (1 mg per reaction; 25 mM Hepes, 0.1 mM EDTA, 12.5 mM MgCl2, 10% glycerol, 0.01% NP-40, 10 mM NaCl; sonicated), precipitated with anti-Ph or anti-E(z) overnight at 4°C on protein A/G beads, Western blot

- binding: no binding
Substance: Drosophila TET catalytic dead (TET^CD-GFP fusion protein from Tet^CD-GFP knock-in flies) (from UniProt M9NEY8-5)
